Source: publication PMC8754129
These are yes or no findings as the source states them, for the method shown. For some of these results: Binding seen in cells or lysates may run through a third protein. Some entries that bind do so weakly or less than the wild type.

Amino acid sequences for entries named in this document (tags omitted). A change or cut given only in a name is not applied to a line headed by its entry. Residues count along the entry.
UniProt F5HCV3: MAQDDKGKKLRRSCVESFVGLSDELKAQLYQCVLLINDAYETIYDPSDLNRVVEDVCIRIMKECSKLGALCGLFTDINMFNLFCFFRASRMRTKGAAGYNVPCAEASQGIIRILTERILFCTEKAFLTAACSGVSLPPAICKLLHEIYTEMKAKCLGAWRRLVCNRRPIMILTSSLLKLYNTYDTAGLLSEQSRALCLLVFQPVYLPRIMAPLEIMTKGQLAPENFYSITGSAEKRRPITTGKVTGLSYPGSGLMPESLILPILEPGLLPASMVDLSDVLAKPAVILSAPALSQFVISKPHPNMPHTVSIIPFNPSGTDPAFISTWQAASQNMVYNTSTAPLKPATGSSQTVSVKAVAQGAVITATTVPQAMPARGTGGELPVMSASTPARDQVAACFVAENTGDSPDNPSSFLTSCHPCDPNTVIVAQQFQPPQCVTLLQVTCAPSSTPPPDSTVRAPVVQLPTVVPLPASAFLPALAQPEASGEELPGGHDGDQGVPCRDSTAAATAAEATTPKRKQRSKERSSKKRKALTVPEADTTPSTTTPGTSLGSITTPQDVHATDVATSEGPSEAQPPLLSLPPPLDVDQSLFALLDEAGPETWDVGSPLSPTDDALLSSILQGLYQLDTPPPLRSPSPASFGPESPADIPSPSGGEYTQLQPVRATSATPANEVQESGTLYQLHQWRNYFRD
GFP-ORF50(1–590) (Kaposi's sarcoma-associated herpesvirus (KSHV)): residues 1-590 of F5HCV3
GFP-ORF50(1–490) (Kaposi's sarcoma-associated herpesvirus (KSHV)): residues 1-490 of F5HCV3
F-Sp3(533–781) (Q02447, residues 533-781): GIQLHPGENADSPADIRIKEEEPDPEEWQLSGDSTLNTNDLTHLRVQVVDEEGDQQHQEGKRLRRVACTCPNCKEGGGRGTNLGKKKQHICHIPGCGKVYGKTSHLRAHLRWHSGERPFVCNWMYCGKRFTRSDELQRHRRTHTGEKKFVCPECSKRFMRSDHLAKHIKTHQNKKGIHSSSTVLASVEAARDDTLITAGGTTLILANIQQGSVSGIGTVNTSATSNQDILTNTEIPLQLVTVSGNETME

Tests used:
[1] = biological target: GFP-ORF50(1–490) (Kaposi's sarcoma-associated herpesvirus (KSHV)) (UniProt F5HCV3); experiment: native gel or EMSA
[2] = biological target: GFP-ORF50(1–490) (Kaposi's sarcoma-associated herpesvirus (KSHV)) (UniProt F5HCV3); experiment: co-IP
[3] = biological target: GFP-ORF50(1–590) (Kaposi's sarcoma-associated herpesvirus (KSHV)) (UniProt F5HCV3); experiment: co-IP

Substance | binding [1] | binding [2] | binding [3]
F-Sp3 (from UniProt Q02447-1 1-781) | binds | – | –
F-Sp3(533–781) (from UniProt Q02447-1 533-781) (domain or fragment) | binds | binds | binds
